Results published in patent US20240116984A1, “MODIFIED PEPTIDES FOR THE INHIBITION OF ABNORMAL TAU ACCUMULATION” (University of Notre Dame du Lac, priority 2021, published 2024).
Not every detail of the peptide structures is certain; ends, links or a residue may be inferred. Starred links: 1 amine or outer side, 2 acyl side, 3 side chain; linkers in the order of their positions; H or OH if unused. Non-standard residues stand in square brackets, D forms with d. Residues, ends and D or L forms follow the SMILES beside them. *: point of attachment. N(NH2)LysNH2 = NCCCC[C@@H](C(N)=O)N(N)*; X3 = CC(C)[C@@H](C(=O)[*:2])N(N)[*:1]

Columns and labels:
[1] = tested on: HEK293 cells stably expressing tau-RD (P301L/V337M)-YFP; assay: Cellular seeding assay, seeding by monomeric tau co-incubated with NAPs; type: cell-based, human; details: 0.19 μM Tau, 4 days co-incubation, cells 48 h
Method: (§1) HEK293 cells stably expressing tau-RD (LM)-YFP were cultured in DMEM media containing 10% FBS, 1% penicillin/streptomycin, and 1% Glutamax™ (Gibco) in a 75 cm^2 cell culture flask under 5% CO2 at 37° C. For each experiment, cells were plated at a density of 15000 cells/well into 96 well tissue culture plates.
Monomeric tauP301L was co-incubated with NAPs for 4 days in an aggregation buffer at 37° C. (see above section). Following incubation, the reaction mixture was diluted in low serum Opti-MEM® media (Gibco), mixed with lipofectamine 2000 in 20:1 ratio (complex:lipofectamine) and allowed to incubate for an additional 20 minutes at RT. A mixture of 0.19 μM of Tau+1.9 μM or 0.009 μM of inhibitors (final concentrations) was added to the cells. Cells were incubated for additional 48 h before taking measurements on a BioTek Cytation 5 cell imager and microplate reader. 10×10 pictures/well were taken at 20× magnification under FITC channel and the punctate counting was carried out using built-in software. Each data set was collected from technical replicates on at least two different days. Every experiment included control wells (no tau, no heparin, and no NAP). All data plots were generated with SigmaPlot. Error bars shown are standard deviation from technical replicates.

[2] = tested on: HEK293 cells stably expressing tau-RD (P301L/V337M)-YFP; type: cell-based, human; details: 36-h inhibitor + mature fibril incubation step omitted
Method: TauP301L was diluted to a final concentration of 10 μM in an aggregation buffer containing 100 mM sodium acetate, 10 μM heparin, 2 mM DTT, pH 7.4. The protein was incubated in a microcentrifuge tube for 4 days at 37° C. with a shaking speed of 100 rpm. Control vials included those wherein (1) buffer was added in place of tauP301L, and (2) buffer was added in place of heparin.
as §1
TauP301L fibrils were prepared as described above (see section on fibril formation) and sonicated for 3 minutes prior to use in this assay. In a reaction volume of 40 μL, 8 μL of fibrils was diluted with 31 μL of low-serum Opti-MEM® (Gibco) media and then mixed with 1 μL of NAPs (DMSO concentration was constant across various concentration of inhibitors). […] IC50 values were calculated by fitting the data set using sigmoidal logistic 4 parameter equation. Error bars represent standard deviation from technical replicates. % Tau infection was calculated using following formula: […]

**Q.** For CC[C@H](C)[C@H](NC(=O)[C@H](CCC(N)=O)NC(=O)[C@@H](NC(C)=O)C(C)C)C(=O)N(N)[C@H](C(=O)N[C@@H](Cc1ccc(O)cc1)C(=O)N(N)[C@@H](CCCCN)C(N)=O)C(C)C [Compound 13, Ac-Val-Gln-Ile-aVal-Tyr-aLys-NH2] (Ac-VQI[X3]Y-{N(NH2)LysNH2}), which “seeding capacity of monomeric tauP301L pre-treated with inhibitor” value ([1]; 0.009 μM inhibitor) is on record?
**A.** less pronounced

**Q.** What about the “seeding capacity of monomeric tauP301L pre-treated with inhibitor” value ([1]; 1.9 μM inhibitor) of the same compound?
**A.** significantly reduced seeding capacity

**Q.** And the “inhibition of Tau infection without inhibitor + fibril co-incubation” value [2]?
**A.** failed to inhibit endogenous tau aggregation
